No signal at the amounts used counts as a negative. At least one verdict was read from the data and is not stated in words by the source.
These sequences were tested on N6amt1 + Trm112 (assay: EMSA). Settings: 10 mM MgAc2, 250 or 500 pmol protein, 50 pmol DNA; EMSA: 10 mM Tris-HCl pH 7.5, 50 mM KCl, 10 mM MgAc2, 20 ul, 25 C, 2 h; 2.5% agarose, Gel Green; recombinant protein.

Row | Sequence | binding result
1 | ACTGACCATGGATCG [DNA4] | no binding
2 | CTTTTTAGAAGCACA [DNA1] | no binding
3 | AATGAGAAGTTTATC [DNA2] | no binding
4 | AAAATCGAGGTTCCC [DNA3] | no binding

Reference: PMC6796863
